# According to article PMC13035864:
# Protein sequences, listed by entry. Tags and fused reporters are not part of them.
# UniProt Q9UPY5: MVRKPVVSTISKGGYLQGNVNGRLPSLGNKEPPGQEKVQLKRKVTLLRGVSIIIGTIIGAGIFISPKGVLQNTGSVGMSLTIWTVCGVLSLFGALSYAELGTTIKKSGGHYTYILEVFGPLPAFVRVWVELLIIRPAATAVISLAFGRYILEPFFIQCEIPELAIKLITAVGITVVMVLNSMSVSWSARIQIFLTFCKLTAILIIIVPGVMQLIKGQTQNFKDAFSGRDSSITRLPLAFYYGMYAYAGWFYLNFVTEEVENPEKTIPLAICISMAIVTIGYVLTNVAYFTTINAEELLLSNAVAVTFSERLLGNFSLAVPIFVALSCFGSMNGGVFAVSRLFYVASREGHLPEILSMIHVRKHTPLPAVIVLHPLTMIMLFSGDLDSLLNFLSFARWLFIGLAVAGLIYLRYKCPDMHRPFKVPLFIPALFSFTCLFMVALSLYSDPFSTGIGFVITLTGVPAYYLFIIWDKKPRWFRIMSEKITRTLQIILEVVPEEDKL
# UniProt P19474: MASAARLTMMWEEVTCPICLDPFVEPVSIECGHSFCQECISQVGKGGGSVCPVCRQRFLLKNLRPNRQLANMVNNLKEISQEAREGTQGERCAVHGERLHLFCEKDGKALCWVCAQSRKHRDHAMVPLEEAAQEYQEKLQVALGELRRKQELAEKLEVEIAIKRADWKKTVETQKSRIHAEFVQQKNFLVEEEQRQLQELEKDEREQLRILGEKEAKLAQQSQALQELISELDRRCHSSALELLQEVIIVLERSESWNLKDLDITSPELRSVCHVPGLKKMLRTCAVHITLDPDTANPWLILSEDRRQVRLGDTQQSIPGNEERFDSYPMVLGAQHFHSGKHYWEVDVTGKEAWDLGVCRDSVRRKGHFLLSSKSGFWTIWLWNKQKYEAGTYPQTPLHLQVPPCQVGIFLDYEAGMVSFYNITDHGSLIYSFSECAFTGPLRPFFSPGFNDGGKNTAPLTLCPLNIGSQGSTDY
# Results are given in words; binding and its absence hold for the method and conditions named. In cells and extracts the contact can be indirect. Some results given as binding are weak or reduced against the parent protein; the word gives no strength.
# Columns and labels:
# [1] = biological target: SLC7A11 in PC3 and DU145 cells (human (endogenous in PC3 and DU145)) (UniProt Q9UPY5); test: co-IP; PC3 and DU145 cells; SLC7A11 immunoprecipitated and TRIM21 detected by Western blotting, and the reverse
# [2] = biological target: SLC7A11 in PC3 and DU145 cells (human (endogenous in PC3 and DU145)) (UniProt Q9UPY5); test: co-IP; PC3 and DU145 cells; immunoprecipitation with anti-Flag, anti-HA or control IgG antibodies, Western blotting for SLC7A11, CCDC7_(19-13) and TRIM21
# [3] = biological target: SLC7A11 construct of the BRET assay (UniProt Q9UPY5); test: FRET or BRET; Bioluminescence Resonance Energy Transfer (BRET) assay, normalized relative light units (RLU)
# [4] = biological target: SLC7A11 used in the GST pull-down of Fig. 8C (UniProt Q9UPY5); test: pull-down; GST pull-down of TRIM21 and SLC7A11 with CCDC7_(19-13) or empty vector (EV) as control
substance,measurement,setting,value
TRIM21 in PC3 and DU145 cells (from UniProt P19474 1-475) (enzyme),binding,[1],binds
same,binding,[2],binds
TRIM21 construct of the BRET assay (from UniProt P19474 1-475) (enzyme),binding,[3],binds
TRIM21 used in the GST pull-down of Fig. 8C (from UniProt P19474 1-475) (enzyme),binding,[4],binds
